Literature values as cited in patent US5449773A, “Platinum complexes of sucrose derivatives” (priority 1995, dated 1995).

System: cellular DNA
Conditions: intracellular, after hydrolysis; listed as cisplatin; cited from earlier work

N.N.[Cl][Pt][Cl] [Sample No. 1, Cis-dichlorodiamine platinum]
fraction bound to cellular DNA: about one percent
